Results on 1 substance are retold here after publication PMC10352775.

The chains behind the UniProt entries cited, without tags or fusion partners.
UniProt Q9UBL6: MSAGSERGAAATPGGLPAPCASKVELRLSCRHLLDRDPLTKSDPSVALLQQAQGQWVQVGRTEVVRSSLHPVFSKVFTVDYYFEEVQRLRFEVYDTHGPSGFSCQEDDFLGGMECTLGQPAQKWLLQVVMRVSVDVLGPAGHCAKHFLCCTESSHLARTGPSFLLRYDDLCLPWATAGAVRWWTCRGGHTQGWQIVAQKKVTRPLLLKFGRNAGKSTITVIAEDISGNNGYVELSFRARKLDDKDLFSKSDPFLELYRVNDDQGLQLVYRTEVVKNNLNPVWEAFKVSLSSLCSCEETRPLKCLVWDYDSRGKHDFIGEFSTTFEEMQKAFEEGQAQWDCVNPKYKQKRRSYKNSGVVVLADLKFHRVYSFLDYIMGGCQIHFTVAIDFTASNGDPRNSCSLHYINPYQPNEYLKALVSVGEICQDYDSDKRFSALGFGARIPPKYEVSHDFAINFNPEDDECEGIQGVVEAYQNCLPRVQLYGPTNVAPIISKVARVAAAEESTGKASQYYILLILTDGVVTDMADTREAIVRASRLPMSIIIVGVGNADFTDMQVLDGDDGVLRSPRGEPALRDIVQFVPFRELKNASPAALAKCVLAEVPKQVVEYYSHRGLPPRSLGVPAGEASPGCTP
UniProt P14618: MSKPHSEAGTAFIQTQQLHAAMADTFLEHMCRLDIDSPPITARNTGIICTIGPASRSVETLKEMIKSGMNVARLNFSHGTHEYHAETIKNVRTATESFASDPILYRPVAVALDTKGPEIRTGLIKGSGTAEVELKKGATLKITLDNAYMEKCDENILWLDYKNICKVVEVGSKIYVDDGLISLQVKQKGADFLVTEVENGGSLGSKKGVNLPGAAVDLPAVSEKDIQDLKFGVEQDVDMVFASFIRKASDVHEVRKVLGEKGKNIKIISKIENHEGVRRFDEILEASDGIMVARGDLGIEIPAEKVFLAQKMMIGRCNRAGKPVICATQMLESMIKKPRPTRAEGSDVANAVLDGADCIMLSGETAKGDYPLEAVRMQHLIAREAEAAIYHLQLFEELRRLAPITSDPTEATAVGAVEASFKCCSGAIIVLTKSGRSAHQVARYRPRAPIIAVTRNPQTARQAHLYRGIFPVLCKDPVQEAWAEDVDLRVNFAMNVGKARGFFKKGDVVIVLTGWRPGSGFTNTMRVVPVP

The target of this assay is Copine 7 (CPNE7), in CPNE7-OE cells (UniProt Q9UBL6). The experiment in a line: affinity purification with mass spectrometry; Co-IP from CPNE7-OE cells compared with control; proteins separated in SDS-PAGE gel, cut out and sequenced by liquid mass spectrometry (PTM Biolabs).

No constants are given. Whether binding was seen depends on the method and setting. In cells and extracts the contact can be indirect. A yes stands for co-enrichment or nearness to the bait. Other partners may have been found.

For “Pyruvate kinase muscle protein (PKM2), found in the co-IP proteomics of CPNE7-OE cells (from UniProt P14618 1-531)”, the binding entry was “binds”.
